Measurements taken from paper PMC9570898, “Comparing Variants of the Cell-Penetrating Peptide sC18 to Design Peptide-Drug Conjugates” (Molecules, 2022).

Assay: CD spectroscopy, R-value (helicity)
Assay type: physicochemical
Conditions: potassium phosphate buffer with 50 % TFE, 20 °C

Substance | R-value [θ]220 nm/[θ]207 nm (pH 6.8, 10 µM peptide) | R-value [θ]220 nm/[θ]207 nm (pH 7.4, 10 µM peptide)
HLRHHLRHFRHHIKH [sC18^ΔE3, variant of sC18^ΔE having a complete part of the helix composed of histidines] | 0.87 | 0.86
GLHKHLHKFHNKIKK [sC18^ΔE2] | 0.88 | 0.76
GLRKRLRKFRNKIKEK-NH2 [sC18] | 0.81 | 0.81
GLRHRLRHFRNHIHH [sC18^ΔE1] | 0.84 | 0.82
GLHKRLHKFHNKIHK [sC18^ΔE4, variant of sC18^ΔE having a complete part of the helix composed of histidines] | 0.85 | 0.81

No end group written: not given here.
